Measurements reported in article PMC8494447.
Results are given in words; binding and its absence hold for the method and conditions named. In cells and extracts the contact can be indirect. A result given as binding can be weak or reduced; the word gives no strength. For some of these results: Tags and fused reporters may be left off the sequences shown. Each block holds one binder with its values, some of them ahead of it.

Columns and labels:
[1] = target: TNFR1, endogenous in HEK293T (human (endogenous in HEK293T)); assay: pull-down; cells treated with GST-TNFα (1 μg/ml) for the indicated time, lysed in IP lysis buffer; ligand-bound TNFR1 complex I retrieved on glutathione-Sepharose 4B overnight at 4°C; Western blot; also RIP1-null Jurkat, HSPA13−/− HT29 and reconstituted HT29 cells
[2] = target: TNFR1, endogenous in HT29 (human (endogenous in HT29)); assay: as above
[3] = target: TNFR1, endogenous in Jurkat (human (endogenous in Jurkat)); assay: as above
[4] = target: TNFR1, endogenous in HeLa (human (endogenous in HeLa)); assay: proximity ligation; HeLa cells stably expressing Flag-HSPA13 or Flag-Δ1-24, fixed with 4% formaldehyde, 0.5% Triton X-100; Duolink In Situ Red Starter Kit; confocal microscopy

B1: HSPA13, endogenous in HEK293T (protein, UniProt P48723 23-471)
chain: QQYLPLPTPKVIGIDLGTTYCSVGVFFPGTGKVKVIPDENGHISIPSMVSFTDNDVYVGYESVELADSNPQNTIYDAKRFIGKIFTAEELEAEIGRYPFKVLNKNGMVEFSVTSNETITVSPEYVGSRLLLKLKEMAEAYLGMPVANAVISVPAEFDLKQRNSTIEAANLAGLKILRVINEPTAAAMAYGLHKADVFHVLVIDLGGGTLDVSLLNKQGGMFLTRAMSGNNKLGGQDFNQRLLQYLYKQIYQTYGFVPSRKEEIHRLRQAVEMVKLNLTLHQSAQLSVLLTVEEQDRKEPHSSDTELPKDKLSSADDHRVNSGFGRGLSDKKSGESQVLFETEISRKLFDTLNEDLFQKILVPIQQVLKEGHLEKTEIDEVVLVGGSTRIPRIRQVIQEFFGKDPNTSVDPDLAVVTGVAIQAGIDGGSWPLQVSALEIPNKHLQKTNFN
binding [1]: binds

B2: Flag-HSPA13 (HT29, stable) (protein, UniProt P48723 23-471)
chain: B1 chain
binding [2]: binds

B3: HSPA13, endogenous in Jurkat (protein, UniProt P48723 23-471)
chain: B1 chain
binding [3]: binds

binding [4]: binds
B4: Flag-HSPA13 (HeLa, stable) (protein, UniProt P48723 23-471)
chain: B1 chain
